These are yes or no findings as the source states them, for the method shown. Binding seen in cells or lysates may run through a third protein. Here binding means that the protein was enriched with, or labelled near, the bait; the list need not be complete. For part of these data: Sequences can lack the tags named with a protein.
T1: TRIB1-tGFP (human) (UniProt Q96RU8)
T1 sequence: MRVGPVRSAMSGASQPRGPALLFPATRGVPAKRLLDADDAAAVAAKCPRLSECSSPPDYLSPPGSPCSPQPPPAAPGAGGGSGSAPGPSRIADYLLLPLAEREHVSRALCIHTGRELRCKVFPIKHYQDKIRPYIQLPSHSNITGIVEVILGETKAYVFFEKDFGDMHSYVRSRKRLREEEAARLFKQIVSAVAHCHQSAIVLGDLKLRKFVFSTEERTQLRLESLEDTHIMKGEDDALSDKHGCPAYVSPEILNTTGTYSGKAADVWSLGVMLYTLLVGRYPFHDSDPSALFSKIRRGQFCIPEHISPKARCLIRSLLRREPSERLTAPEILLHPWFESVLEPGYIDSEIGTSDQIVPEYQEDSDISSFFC

Chains of the proteins cited; added tags and fusions are not shown. Lines headed by an entry give the natural chain unless they say otherwise; changes in a name come on top.
UniProt P11586: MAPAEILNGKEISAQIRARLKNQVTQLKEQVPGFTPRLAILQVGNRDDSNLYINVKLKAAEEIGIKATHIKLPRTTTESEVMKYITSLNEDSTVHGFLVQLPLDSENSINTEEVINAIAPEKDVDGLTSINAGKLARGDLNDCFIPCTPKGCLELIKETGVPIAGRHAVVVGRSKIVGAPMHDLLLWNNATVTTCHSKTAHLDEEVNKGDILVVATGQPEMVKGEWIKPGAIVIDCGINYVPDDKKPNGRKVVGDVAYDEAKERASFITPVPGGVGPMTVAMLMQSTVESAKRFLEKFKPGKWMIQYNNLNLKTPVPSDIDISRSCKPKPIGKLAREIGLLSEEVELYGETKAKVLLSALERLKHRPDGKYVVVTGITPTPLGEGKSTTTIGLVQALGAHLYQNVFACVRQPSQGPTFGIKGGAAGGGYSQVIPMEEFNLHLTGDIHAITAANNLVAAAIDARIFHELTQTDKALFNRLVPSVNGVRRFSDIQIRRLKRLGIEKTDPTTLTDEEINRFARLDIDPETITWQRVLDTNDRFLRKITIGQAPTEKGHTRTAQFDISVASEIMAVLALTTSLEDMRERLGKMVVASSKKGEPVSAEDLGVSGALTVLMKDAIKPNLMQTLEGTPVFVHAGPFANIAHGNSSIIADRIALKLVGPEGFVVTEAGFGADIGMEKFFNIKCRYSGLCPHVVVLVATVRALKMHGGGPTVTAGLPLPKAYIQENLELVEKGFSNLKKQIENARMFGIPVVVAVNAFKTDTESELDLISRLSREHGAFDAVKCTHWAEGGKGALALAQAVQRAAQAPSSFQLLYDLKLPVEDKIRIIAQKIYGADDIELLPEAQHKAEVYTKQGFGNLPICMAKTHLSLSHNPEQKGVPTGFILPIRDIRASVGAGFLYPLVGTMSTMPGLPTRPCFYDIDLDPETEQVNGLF
UniProt P39880: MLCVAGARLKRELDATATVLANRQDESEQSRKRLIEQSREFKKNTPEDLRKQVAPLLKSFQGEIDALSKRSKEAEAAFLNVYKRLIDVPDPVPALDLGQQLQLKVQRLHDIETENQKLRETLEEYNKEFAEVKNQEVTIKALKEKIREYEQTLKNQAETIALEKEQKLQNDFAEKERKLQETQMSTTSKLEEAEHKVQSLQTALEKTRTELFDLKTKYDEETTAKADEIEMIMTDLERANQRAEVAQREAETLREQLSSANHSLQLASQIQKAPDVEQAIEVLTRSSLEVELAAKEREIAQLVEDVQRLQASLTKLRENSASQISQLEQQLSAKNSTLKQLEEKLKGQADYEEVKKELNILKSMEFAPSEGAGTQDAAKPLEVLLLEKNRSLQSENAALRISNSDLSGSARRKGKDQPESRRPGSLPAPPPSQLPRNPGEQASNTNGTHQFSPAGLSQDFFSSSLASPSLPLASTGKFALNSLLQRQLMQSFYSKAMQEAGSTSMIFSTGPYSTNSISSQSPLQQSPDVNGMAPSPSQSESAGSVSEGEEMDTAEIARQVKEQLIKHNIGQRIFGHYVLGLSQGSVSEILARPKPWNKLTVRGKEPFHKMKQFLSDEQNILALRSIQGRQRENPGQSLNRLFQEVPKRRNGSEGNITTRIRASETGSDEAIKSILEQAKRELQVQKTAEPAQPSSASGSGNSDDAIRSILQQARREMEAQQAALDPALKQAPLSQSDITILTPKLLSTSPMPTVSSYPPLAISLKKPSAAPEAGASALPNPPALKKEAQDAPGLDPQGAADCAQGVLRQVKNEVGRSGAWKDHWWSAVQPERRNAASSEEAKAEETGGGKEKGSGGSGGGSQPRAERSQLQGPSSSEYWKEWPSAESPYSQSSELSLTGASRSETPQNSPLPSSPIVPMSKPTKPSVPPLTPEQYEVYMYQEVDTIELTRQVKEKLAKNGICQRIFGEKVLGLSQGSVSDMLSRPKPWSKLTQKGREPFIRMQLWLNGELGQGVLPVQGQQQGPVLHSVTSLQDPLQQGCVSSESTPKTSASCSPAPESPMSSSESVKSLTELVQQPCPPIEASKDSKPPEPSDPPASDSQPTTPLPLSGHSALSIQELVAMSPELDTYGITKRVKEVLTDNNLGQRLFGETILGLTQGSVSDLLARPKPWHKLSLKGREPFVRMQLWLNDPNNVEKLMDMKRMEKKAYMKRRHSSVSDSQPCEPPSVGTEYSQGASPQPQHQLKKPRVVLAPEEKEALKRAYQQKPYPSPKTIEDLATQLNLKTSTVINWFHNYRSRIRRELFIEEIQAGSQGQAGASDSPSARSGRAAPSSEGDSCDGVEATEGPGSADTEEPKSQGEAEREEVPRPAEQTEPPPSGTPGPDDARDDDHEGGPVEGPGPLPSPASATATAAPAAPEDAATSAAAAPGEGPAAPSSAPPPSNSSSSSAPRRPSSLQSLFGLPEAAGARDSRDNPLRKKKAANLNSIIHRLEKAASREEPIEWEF
UniProt P38936: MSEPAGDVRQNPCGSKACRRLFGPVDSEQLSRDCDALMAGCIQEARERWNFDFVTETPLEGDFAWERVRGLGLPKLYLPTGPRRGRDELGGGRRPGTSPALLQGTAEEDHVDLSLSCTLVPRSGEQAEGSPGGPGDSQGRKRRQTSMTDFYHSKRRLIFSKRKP
UniProt P07737: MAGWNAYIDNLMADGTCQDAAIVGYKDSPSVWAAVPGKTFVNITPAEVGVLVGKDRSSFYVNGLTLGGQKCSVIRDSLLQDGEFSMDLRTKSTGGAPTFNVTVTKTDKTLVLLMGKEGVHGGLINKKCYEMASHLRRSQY
UniProt Q9BRP4: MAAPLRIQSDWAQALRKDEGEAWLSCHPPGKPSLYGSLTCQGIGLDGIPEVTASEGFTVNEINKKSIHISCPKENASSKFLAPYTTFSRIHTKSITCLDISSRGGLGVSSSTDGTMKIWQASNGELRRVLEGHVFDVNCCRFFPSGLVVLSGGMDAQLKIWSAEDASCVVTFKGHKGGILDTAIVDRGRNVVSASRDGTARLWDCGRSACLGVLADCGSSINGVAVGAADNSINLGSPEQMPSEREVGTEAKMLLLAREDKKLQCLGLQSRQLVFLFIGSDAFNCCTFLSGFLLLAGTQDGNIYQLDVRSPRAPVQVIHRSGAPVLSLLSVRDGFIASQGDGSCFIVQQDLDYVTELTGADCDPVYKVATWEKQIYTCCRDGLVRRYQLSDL
UniProt P48643: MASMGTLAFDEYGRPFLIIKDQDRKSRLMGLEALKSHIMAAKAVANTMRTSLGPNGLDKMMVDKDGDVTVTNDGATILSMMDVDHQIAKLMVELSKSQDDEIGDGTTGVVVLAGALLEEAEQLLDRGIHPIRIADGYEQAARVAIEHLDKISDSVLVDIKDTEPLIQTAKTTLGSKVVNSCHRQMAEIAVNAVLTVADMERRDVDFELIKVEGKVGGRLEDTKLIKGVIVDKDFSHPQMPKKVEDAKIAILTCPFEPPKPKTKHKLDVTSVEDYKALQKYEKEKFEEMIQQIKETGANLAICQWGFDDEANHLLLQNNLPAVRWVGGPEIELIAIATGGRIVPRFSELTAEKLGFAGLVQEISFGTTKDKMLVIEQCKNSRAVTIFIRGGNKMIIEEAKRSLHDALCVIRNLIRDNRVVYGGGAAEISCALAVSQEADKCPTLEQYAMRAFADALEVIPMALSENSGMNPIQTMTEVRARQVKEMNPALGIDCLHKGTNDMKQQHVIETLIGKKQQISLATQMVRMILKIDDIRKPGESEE
UniProt Q16531: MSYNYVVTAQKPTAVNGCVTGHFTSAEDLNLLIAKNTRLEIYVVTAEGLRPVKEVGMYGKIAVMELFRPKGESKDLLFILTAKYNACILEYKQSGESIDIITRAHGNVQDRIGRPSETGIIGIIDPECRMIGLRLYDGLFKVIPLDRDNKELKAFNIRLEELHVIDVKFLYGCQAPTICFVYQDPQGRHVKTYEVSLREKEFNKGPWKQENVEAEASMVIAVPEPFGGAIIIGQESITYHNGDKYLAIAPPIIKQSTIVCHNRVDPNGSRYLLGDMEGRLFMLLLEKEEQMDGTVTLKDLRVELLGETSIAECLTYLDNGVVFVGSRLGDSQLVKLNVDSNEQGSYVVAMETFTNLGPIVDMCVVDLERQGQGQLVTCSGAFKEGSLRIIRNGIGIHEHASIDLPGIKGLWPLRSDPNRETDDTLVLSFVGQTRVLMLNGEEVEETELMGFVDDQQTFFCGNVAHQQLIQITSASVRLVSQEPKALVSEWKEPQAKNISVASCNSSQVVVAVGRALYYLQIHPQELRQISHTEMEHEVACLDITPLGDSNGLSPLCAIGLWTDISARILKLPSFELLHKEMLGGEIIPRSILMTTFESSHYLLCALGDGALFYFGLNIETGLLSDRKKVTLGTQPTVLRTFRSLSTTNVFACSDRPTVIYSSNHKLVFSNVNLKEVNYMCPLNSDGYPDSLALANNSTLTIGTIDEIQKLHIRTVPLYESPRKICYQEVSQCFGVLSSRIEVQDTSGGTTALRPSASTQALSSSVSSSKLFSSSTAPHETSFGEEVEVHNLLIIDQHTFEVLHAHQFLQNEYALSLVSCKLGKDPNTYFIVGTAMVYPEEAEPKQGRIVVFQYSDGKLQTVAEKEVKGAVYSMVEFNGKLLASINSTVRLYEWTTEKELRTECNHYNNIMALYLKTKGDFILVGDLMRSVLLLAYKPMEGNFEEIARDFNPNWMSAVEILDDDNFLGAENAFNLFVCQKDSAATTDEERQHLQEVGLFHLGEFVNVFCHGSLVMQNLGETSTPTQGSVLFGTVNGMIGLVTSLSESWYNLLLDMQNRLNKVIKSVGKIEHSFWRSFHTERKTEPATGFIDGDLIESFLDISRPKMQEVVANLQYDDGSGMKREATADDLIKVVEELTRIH
UniProt Q96RU7: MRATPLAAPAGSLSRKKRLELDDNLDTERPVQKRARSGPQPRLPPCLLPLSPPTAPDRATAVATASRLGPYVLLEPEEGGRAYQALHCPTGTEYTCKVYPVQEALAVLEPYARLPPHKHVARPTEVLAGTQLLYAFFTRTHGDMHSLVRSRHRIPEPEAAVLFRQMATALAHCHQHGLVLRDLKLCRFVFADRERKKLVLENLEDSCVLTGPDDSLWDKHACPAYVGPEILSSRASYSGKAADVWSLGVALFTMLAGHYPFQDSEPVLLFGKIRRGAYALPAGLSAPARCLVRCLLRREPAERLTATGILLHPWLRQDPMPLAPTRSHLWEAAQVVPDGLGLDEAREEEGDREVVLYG
UniProt Q99627: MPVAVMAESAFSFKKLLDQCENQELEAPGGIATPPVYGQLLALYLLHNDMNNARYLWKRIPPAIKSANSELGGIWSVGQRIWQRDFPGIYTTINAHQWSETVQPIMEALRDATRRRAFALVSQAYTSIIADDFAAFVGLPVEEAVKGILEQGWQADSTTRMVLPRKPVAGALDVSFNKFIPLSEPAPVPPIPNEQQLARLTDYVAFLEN
UniProt Q9C005: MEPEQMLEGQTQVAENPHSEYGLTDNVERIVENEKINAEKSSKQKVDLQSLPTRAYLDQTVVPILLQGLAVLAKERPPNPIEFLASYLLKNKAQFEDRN
UniProt P01106: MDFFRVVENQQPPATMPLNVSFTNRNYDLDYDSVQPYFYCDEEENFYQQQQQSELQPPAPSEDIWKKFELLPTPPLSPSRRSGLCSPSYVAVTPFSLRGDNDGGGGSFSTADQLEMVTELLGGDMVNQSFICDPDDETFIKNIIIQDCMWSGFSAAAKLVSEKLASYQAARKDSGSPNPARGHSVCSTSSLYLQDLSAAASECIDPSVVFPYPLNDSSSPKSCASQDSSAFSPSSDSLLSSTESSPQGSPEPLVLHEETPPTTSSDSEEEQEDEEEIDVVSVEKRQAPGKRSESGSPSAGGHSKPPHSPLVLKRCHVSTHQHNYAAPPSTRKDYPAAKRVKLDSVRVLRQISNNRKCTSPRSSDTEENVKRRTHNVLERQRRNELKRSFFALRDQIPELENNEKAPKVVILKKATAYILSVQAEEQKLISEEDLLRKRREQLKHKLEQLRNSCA
UniProt Q15291: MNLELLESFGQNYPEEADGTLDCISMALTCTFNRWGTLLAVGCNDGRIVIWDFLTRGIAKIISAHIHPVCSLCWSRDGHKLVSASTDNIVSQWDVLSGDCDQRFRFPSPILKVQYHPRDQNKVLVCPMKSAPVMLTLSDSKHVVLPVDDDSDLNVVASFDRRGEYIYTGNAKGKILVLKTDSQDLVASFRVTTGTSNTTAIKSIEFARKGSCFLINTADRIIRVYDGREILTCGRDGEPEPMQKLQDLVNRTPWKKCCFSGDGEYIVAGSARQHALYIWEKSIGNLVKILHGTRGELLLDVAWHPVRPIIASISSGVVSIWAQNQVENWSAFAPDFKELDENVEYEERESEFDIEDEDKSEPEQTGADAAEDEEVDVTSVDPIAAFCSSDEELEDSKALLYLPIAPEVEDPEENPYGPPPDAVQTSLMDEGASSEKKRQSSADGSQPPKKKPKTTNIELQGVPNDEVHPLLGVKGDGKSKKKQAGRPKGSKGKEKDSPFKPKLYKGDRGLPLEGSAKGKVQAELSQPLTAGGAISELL

T2: TRIB1 GFP-fusion protein (human) (UniProt Q96RU8)
T2 sequence: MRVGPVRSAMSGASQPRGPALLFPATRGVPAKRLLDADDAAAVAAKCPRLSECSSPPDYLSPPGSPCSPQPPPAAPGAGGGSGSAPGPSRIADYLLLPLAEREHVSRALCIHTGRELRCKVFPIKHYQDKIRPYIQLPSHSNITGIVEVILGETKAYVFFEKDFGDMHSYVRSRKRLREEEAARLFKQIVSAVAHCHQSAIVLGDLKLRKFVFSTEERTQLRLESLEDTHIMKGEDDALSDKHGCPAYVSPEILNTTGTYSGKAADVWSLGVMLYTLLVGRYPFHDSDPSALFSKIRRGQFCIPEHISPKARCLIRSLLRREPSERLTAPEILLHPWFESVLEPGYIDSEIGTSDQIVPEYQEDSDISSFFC

T3: TRIB2 GFP-fusion protein (human) (UniProt Q92519)
T3 sequence: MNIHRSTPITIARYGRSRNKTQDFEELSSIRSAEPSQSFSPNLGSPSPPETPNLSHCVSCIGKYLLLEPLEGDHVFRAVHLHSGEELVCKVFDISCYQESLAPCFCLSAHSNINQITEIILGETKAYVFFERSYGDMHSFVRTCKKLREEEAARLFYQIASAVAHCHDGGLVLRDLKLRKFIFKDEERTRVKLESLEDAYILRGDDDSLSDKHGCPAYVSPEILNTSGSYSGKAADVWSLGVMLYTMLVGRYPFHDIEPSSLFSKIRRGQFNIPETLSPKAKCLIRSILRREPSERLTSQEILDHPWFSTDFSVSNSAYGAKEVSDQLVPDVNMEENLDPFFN


molecular target: T1, TRIB1-tGFP (human); test: affinity purification with mass spectrometry; tGFP-fusion bait from lysate of stable MCF7 cells induced with 2 μg/mL doxycycline for 24 h, on turboGFP-Trap beads; LC-MS, label-free, against tGFP control

Row | binding | Molecule
1 | binds | C-1-tetrahydrofolate synthase (from UniProt P11586 1-935)
2 | binds | Cut like Homeobox 1 (from UniProt P39880 1-1505)
3 | binds | Cyclin Dependent Kinase Inhibitor 1A (from UniProt P38936 1-164)
4 | binds | DNA-dependent protein kinase catalytic subunit (from UniProt P78527 1-4128)
5 | binds | DnaJ Heat Shock Protein Family Member B1 (from UniProt P25685 1-340)
6 | binds | Histone Deacetylase 6 (from UniProt Q9UBN7 1-1215)
7 | binds | Profilin 1 (from UniProt P07737 1-140)
8 | binds | Proteasomal ATPase Associated Factor 1 (from UniProt Q9BRP4 1-392)
9 | binds | Stress induced Phosphoprotein 1 (from UniProt P31948 1-543)
10 | binds | T-complex protein 1 subunit epsilon (from UniProt P48643 1-541)
11 | binds | Endothelial Differentiation Related Factor 1 (protein, UniProt O60869 1-148) MAESDWDTVTVLRKKGPTAAQAKSKQAILAAQRRGEDVETSKKWAAGQNKQHSITKNTAKLDRETEELHHDRVTLEVGKVIQQGRQSKGLTQKDLATKINEKPQVIADYESGRAIPNNQVLGKIERAIGLKLRGKDIGKPIEKGPRAK
12 | binds | PDGFA Associated Protein 1 (protein, UniProt Q13442 1-181) MPKGGRKGGHKGRARQYTSPEEIDAQLQAEKQKAREEEEQKEGGDGAAGDPKKEKKSLDSDESEDEEDDYQQKRKGVEGLIDIENPNRVAQTTKKVTQLDLDGPKELSRREREEIEKQKAKERYMKMHLAGKTEQAKADLARLAIIRKQREEAARKKEEERKAKDDATLSGKRMQSLSLNK
13 | binds | Peroxiredoxin 2 (protein, UniProt P32119 1-198) MASGNARIGKPAPDFKATAVVDGAFKEVKLSDYKGKYVVLFFYPLDFTFVCPTEIIAFSNRAEDFRKLGCEVLGVSVDSQFTHLAWINTPRKEGGLGPLNIPLLADVTRRLSEDYGVLKTDEGIAYRGLFIIDGKGVLRQITVNDLPVGRSVDEALRLVQAFQYTDEHGEVCPAGWKPGSDTIKPNVDDSKEYFSKHN

molecular target: T2, TRIB1 GFP-fusion protein (human); test: affinity purification with mass spectrometry; GFP-fusion bait from lysate of transfected HEK293T cells on GFP-Trap beads, 2 h at 4 °C; lysis buffer 50 mM Tris pH 8.0, 1 mM EDTA, 0.1% NP40, 250 mM NaCl, 10% glycerol; on-bead digestion, LC-MS, label-free, against GFP control (or mutant against mutant or wild type)

Row | binding | Molecule
14 | binds | Damage Specific DNA Binding Protein 1 (from UniProt Q16531 1-1140)
15 | binds | Histone Deacetylase 6 (from UniProt Q9UBN7 1-1215)
16 | binds | Stress induced Phosphoprotein 1 (from UniProt P31948 1-543)
17 | binds | Tribbles Pseudokinase 1 (protein, UniProt Q96RU8 1-372) MRVGPVRSAMSGASQPRGPALLFPATRGVPAKRLLDADDAAAVAAKCPRLSECSSPPDYLSPPGSPCSPQPPPAAPGAGGGSGSAPGPSRIADYLLLPLAEREHVSRALCIHTGRELRCKVFPIKHYQDKIRPYIQLPSHSNITGIVEVILGETKAYVFFEKDFGDMHSYVRSRKRLREEEAARLFKQIVSAVAHCHQSAIVLGDLKLRKFVFSTEERTQLRLESLEDTHIMKGEDDALSDKHGCPAYVSPEILNTTGTYSGKAADVWSLGVMLYTLLVGRYPFHDSDPSALFSKIRRGQFCIPEHISPKARCLIRSLLRREPSERLTAPEILLHPWFESVLEPGYIDSEIGTSDQIVPEYQEDSDISSFFC

molecular target: T3, TRIB2 GFP-fusion protein (human); test: as above

Row | binding | Molecule
18 | binds | Damage Specific DNA Binding Protein 1 (from UniProt Q16531 1-1140)
19 | binds | Tribbles Pseudokinase 1 (protein, UniProt Q96RU8 1-372) MRVGPVRSAMSGASQPRGPALLFPATRGVPAKRLLDADDAAAVAAKCPRLSECSSPPDYLSPPGSPCSPQPPPAAPGAGGGSGSAPGPSRIADYLLLPLAEREHVSRALCIHTGRELRCKVFPIKHYQDKIRPYIQLPSHSNITGIVEVILGETKAYVFFEKDFGDMHSYVRSRKRLREEEAARLFKQIVSAVAHCHQSAIVLGDLKLRKFVFSTEERTQLRLESLEDTHIMKGEDDALSDKHGCPAYVSPEILNTTGTYSGKAADVWSLGVMLYTLLVGRYPFHDSDPSALFSKIRRGQFCIPEHISPKARCLIRSLLRREPSERLTAPEILLHPWFESVLEPGYIDSEIGTSDQIVPEYQEDSDISSFFC

molecular target: TRIB3-ΔC-terminal (human) (UniProt Q96RU7); test: as above

Row | binding | Molecule
20 | binds | COP9 Signalosome Subunit 8 (from UniProt Q99627 1-209)
21 | binds | Dpy-30 Histone Methyltransferase Complex (from UniProt Q9C005 1-99)
22 | binds | MYC Proto-Oncogene (from UniProt P01106 1-454)
23 | binds | RB Binding Protein 5 (from UniProt Q15291 1-538)
24 | binds | Set1/Ash2 Histone Methyltranferase Complex Subunit (from UniProt Q9UBL3 1-628)
25 | binds | Protein kinase D1 (protein, UniProt Q15139 1-912) MSAPPVLRPPSPLLPVAAAAAAAAAALVPGSGPGPAPFLAPVAAPVGGISFHLQIGLSREPVLLLQDSSGDYSLAHVREMACSIVDQKFPECGFYGMYDKILLFRHDPTSENILQLVKAASDIQEGDLIEVVLSASATFEDFQIRPHALFVHSYRAPAFCDHCGEMLWGLVRQGLKCEGCGLNYHKRCAFKIPNNCSGVRRRRLSNVSLTGVSTIRTSSAELSTSAPDEPLLQKSPSESFIGREKRSNSQSYIGRPIHLDKILMSKVKVPHTFVIHSYTRPTVCQYCKKLLKGLFRQGLQCKDCRFNCHKRCAPKVPNNCLGEVTINGDLLSPGAESDVVMEEGSDDNDSERNSGLMDDMEEAMVQDAEMAMAECQNDSGEMQDPDPDHEDANRTISPSTSNNIPLMRVVQSVKHTKRKSSTVMKEGWMVHYTSKDTLRKRHYWRLDSKCITLFQNDTGSRYYKEIPLSEILSLEPVKTSALIPNGANPHCFEITTANVVYYVGENVVNPSSPSPNNSVLTSGVGADVARMWEIAIQHALMPVIPKGSSVGTGTNLHRDISVSISVSNCQIQENVDISTVYQIFPDEVLGSGQFGIVYGGKHRKTGRDVAIKIIDKLRFPTKQESQLRNEVAILQNLHHPGVVNLECMFETPERVFVVMEKLHGDMLEMILSSEKGRLPEHITKFLITQILVALRHLHFKNIVHCDLKPENVLLASADPFPQVKLCDFGFARIIGEKSFRRSVVGTPAYLAPEVLRNKGYNRSLDMWSVGVIIYVSLSGTFPFNEDEDIHDQIQNAAFMYPPNPWKEISHEAIDLINNLLQVKMRKRYSVDKTLSHPWLQDYQTWLDLRELECKIGERYITHESDDLRWEKYAGEQGLQYPTHLINPSASHSDTPETEETEMKALGERVSIL
26 | binds | Nuclear Factor of Activated T Cells 3 (protein, UniProt Q12968 1-1075) MTTANCGAHDELDFKLVFGEDGAPAPPPPGSRPADLEPDDCASIYIFNVDPPPSTLTTPLCLPHHGLPSHSSVLSPSFQLQSHKNYEGTCEIPESKYSPLGGPKPFECPSIQITSISPNCHQELDAHEDDLQINDPEREFLERPSRDHLYLPLEPSYRESSLSPSPASSISSRSWFSDASSCESLSHIYDDVDSELNEAAARFTLGSPLTSPGGSPGGCPGEETWHQQYGLGHSLSPRQSPCHSPRSSVTDENWLSPRPASGPSSRPTSPCGKRRHSSAEVCYAGSLSPHHSPVPSPGHSPRGSVTEDTWLNASVHGGSGLGPAVFPFQYCVETDIPLKTRKTSEDQAAILPGKLELCSDDQGSLSPARETSIDDGLGSQYPLKKDSCGDQFLSVPSPFTWSKPKPGHTPIFRTSSLPPLDWPLPAHFGQCELKIEVQPKTHHRAHYETEGSRGAVKASTGGHPVVKLLGYNEKPINLQMFIGTADDRYLRPHAFYQVHRITGKTVATASQEIIIASTKVLEIPLLPENNMSASIDCAGILKLRNSDIELRKGETDIGRKNTRVRLVFRVHIPQPSGKVLSLQIASIPVECSQRSAQELPHIEKYSINSCSVNGGHEMVVTGSNFLPESKIIFLEKGQDGRPQWEVEGKIIREKCQGAHIVLEVPPYHNPAVTAAVQVHFYLCNGKRKKSQSQRFTYTPVLMKQEHREEIDLSSVPSLPVPHPAQTQRPSSDSGCSHDSVLSGQRSLICSIPQTYASMVTSSHLPQLQCRDESVSKEQHMIPSPIVHQPFQVTPTPPVGSSYQPMQTNVVYNGPTCLPINAASSQEFDSVLFQQDATLSGLVNLGCQPLSSIPFHSSNSGSTGHLLAHTPHSVHTLPHLQSMGYHCSNTGQRSLSSPVADQITGQPSSQLQPITYGPSHSGSATTASPAASHPLASSPLSGPPSPQLQPMPYQSPSSGTASSPSPATRMHSGQHSTQAQSTGQGGLSAPSSLICHSLCDPASFPPDGATVSIKPEPEDREPNFATIGLQDITLDDVNEIIGRDMSQISVSQGAGVSRQAPLPSPESLDLGRSDGL
27 | binds | Poly(A)-Specific Ribonuclease (protein, UniProt O95453 1-639) MEIIRSNFKSNLHKVYQAIEEADFFAIDGEFSGISDGPSVSALTNGFDTPEERYQKLKKHSMDFLLFQFGLCTFKYDYTDSKYITKSFNFYVFPKPFNRSSPDVKFVCQSSSIDFLASQGFDFNKVFRNGIPYLNQEEERQLREQYDEKRSQANGAGALSYVSPNTSKCPVTIPEDQKKFIDQVVEKIEDLLQSEENKNLDLEPCTGFQRKLIYQTLSWKYPKGIHVETLETEKKERYIVISKVDEEERKRREQQKHAKEQEELNDAVGFSRVIHAIANSGKLVIGHNMLLDVMHTVHQFYCPLPADLSEFKEMTTCVFPRLLDTKLMASTQPFKDIINNTSLAELEKRLKETPFNPPKVESAEGFPSYDTASEQLHEAGYDAYITGLCFISMANYLGSFLSPPKIHVSARSKLIEPFFNKLFLMRVMDIPYLNLEGPDLQPKRDHVLHVTFPKEWKTSDLYQLFSAFGNIQISWIDDTSAFVSLSQPEQVKIAVNTSKYAESYRIQTYAEYMGRKQEEKQIKRKWTEDSWKEADSKRLNPQCIPYTLQNHYYRNNSFTAPSTVGKRNLSPSQEEAGLEDGVSGEISDTELEQTDSCAEPLSEGRKKAKKLKRMKKELSPAGSISKNSPATLFEVPDTW
